Source: article PMC7819943, “Rice protein-binding microarrays: a tool to detect cis-acting elements near promoter regions in rice”
The other results are listed elsewhere or left out.

By UniProt entry, the sequences of proteins in these tests, tags left out.
UniProt Q0JBA9, entry or part of it: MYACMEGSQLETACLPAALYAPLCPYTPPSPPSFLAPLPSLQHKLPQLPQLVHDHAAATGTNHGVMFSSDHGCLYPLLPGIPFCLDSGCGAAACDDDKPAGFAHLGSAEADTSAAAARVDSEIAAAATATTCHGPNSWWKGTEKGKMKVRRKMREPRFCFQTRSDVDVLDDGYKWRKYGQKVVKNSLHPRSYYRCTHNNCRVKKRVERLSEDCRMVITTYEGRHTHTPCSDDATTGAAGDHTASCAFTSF

These sequences were tested against OsWRKY34 (Oryza sativa, UniProt Q0JBA9 1-250) (assay: protein-binding microarray (RPBM); PBS, 2% BSA, 51.3 ng/ul salmon testes DNA, 50 uM zinc acetate, 200 nM TF, 25 C, 1 h; high values mean tight binding). Conditions: protein: recombinant; tags: N-terminal polyhistidine and DsRed monomer fusion (pET32a); label: CyDye5-dUTP incorporated in the synthesized complementary strand; 3' TTTTT single-stranded linker to array surface; dsDNA, one strand shown.
Outline: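 Polyhistidine-tagged DsRed fusions of transcription factors, joined at the N-terminus, were expressed in E. coli BL21-CodonPlus and isolated on Ni–NTA. They were incubated at 200 nM for 1 h at 25 °C on a custom Agilent array, double-stranded and BSA-blocked, in PBS with 2% BSA, salmon testes DNA and 50 µM zinc acetate. The binding signal is per-feature fluorescence intensity (arbitrary units) read on an Axon 4000B scanner after washing.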

Sequence	binding signal
AGGGTGGGTTATATTTGAGCTGGTTAGCAAAAACTATAATCGGAGTCACCTAGTGCAG	17900 fluorescence intensity (a.u.)
CACACTGCTCCTAGTACTACAATTACACTGGTCCTGCCCGCGGAGTCACCTAGTGCAG	8680 fluorescence intensity (a.u.)
ATATATATATATATATCTGTGTGTGTGTGTGTGTGTGTGTCGGAGTCACCTAGTGCAG	8960 fluorescence intensity (a.u.)
CCATTTCTTCTACCCCTATATATTCACCTCCATGCACAATCGGAGTCACCTAGTGCAG	8830 fluorescence intensity (a.u.)
ATCACATTTTCCTACACATTCAAACTAGACAACGTTCATTCGGAGTCACCTAGTGCAG	8790 fluorescence intensity (a.u.)
GGAGTCCGTTTCGTCTTCGTCTTCGTCGTCGTCGTCTTCTCGGAGTCACCTAGTGCAG	9060 fluorescence intensity (a.u.)
ATTAATCCAGTTTTATGCGTTTTGTGAAAAGTTTATATATCGGAGTCACCTAGTGCAG	9150 fluorescence intensity (a.u.)
GTAGTAACATGACCAAGTTCGGATCGGTCATCAACTTCAGCGGAGTCACCTAGTGCAG	8420 fluorescence intensity (a.u.)
ACATGTAGGCATGAACATGGCTCTCTGTCTCTGCATTAACCGGAGTCACCTAGTGCAG	8050 fluorescence intensity (a.u.)
ATGCTATGTTCCGATGCTCACTATGGTTTCATGTTCATGGCGGAGTCACCTAGTGCAG	8040 fluorescence intensity (a.u.)
CTGCGCGATTCCGGCGAGCCCACCGCCGCCGGCTCGCCGGCGGAGTCACCTAGTGCAG	8260 fluorescence intensity (a.u.)
TACCATTTCTTTCTTGCTTTTTTAATGCCTAAATCATCTTCGGAGTCACCTAGTGCAG	8050 fluorescence intensity (a.u.)
CGTTTTCTTTTTTCTTCCTCGCTTTCTCTCTCTCTCTCTCCGGAGTCACCTAGTGCAG	11600 fluorescence intensity (a.u.)
CAAGTTGCATGCGTGTCTTCTTCCTACCATCACTTCTCTCCGGAGTCACCTAGTGCAG	10400 fluorescence intensity (a.u.)
TTATTGACCATCGACGCCATTCTCACCATCCAGTGGTCACCGGAGTCACCTAGTGCAG	8500 fluorescence intensity (a.u.)
AGTCTTTGGTCGTCTCAGTGTCCGTCTCCTTCCTCATCTCCGGAGTCACCTAGTGCAG	10700 fluorescence intensity (a.u.)
AGCGTGGATATGTCTCACTATGATTATTTAGTACTACACACGGAGTCACCTAGTGCAG	8480 fluorescence intensity (a.u.)
AGCCGTCACCTACCTTCCCAAGCCGAGCCGGAGGAGATATCGGAGTCACCTAGTGCAG	8040 fluorescence intensity (a.u.)
ATCTCAACTTGTGCATTCAGATTTCACTTGTGCATCTCATCGGAGTCACCTAGTGCAG	8370 fluorescence intensity (a.u.)
GCACCGCCATTTGTTTATTGCCATCATTTATGATTTCGTACGGAGTCACCTAGTGCAG	10800 fluorescence intensity (a.u.)
AGGTAGTTTAACACACATCATGCTCGCTTAACTGCAGCAACGGAGTCACCTAGTGCAG	9280 fluorescence intensity (a.u.)
ACATATTCCATGAATGATTGATCTCTTTTGCATTTGTTCGCGGAGTCACCTAGTGCAG	8330 fluorescence intensity (a.u.)
GATATGATTACGTGTGTTATTCATTTTGTGTATTTTTTTACGGAGTCACCTAGTGCAG	11000 fluorescence intensity (a.u.)
AACCTAGCTTTCTGCTTTTCCGTCGTGCACGCTGCGGCCGCGGAGTCACCTAGTGCAG	9020 fluorescence intensity (a.u.)
ATATCCCGTGTACGCTTTCCACTGTGCAATTAGCAAATCTCGGAGTCACCTAGTGCAG	9160 fluorescence intensity (a.u.)
TTCTTCCGTCCTTGTATTCCAACTTCCTCCTACTAACTACCGGAGTCACCTAGTGCAG	9640 fluorescence intensity (a.u.)
TACTTCATATGGCCTGTTTAGTTCCAAAGTTTTTTTTTTTCGGAGTCACCTAGTGCAG	8050 fluorescence intensity (a.u.)

Sequence	binding signal
GCTTTGGTTAGTTTGATTCGATTGCAATATCTGCAATCCCCGGAGTCACCTAGTGCAG	9360 fluorescence intensity (a.u.)
CGTCTCTGACCAATCCAGACCTGCGTTTCTTTCTCTTTTCCGGAGTCACCTAGTGCAG	8480 fluorescence intensity (a.u.)
CTAGTATTTTTTTTTCTTTTCGGTACTCCACGCTCGTTCTCGGAGTCACCTAGTGCAG	9880 fluorescence intensity (a.u.)
GGAGTTTGTTCGTTTCTTTCCCGTTGTCCTATGCCCACTGCGGAGTCACCTAGTGCAG	13400 fluorescence intensity (a.u.)
CACCCTCGCGCCGTCCATACATCCACCGTCGTGTCGCCCACGGAGTCACCTAGTGCAG	13900 fluorescence intensity (a.u.)
CTATCTGTTAGCTTCTAATATCTATTTTCGCGAACTGCTACGGAGTCACCTAGTGCAG	9970 fluorescence intensity (a.u.)
ACTGCTCTGCATCATCTTCACCAACATGTCGACAACCAGCCGGAGTCACCTAGTGCAG	8840 fluorescence intensity (a.u.)
TAGTATTTACCAGCTCTTTTGGATATGACAATTGACCATTCGGAGTCACCTAGTGCAG	8320 fluorescence intensity (a.u.)
TCACTAAATTGCTTTCCTGTATGTGCACATCCAAATTTTTCGGAGTCACCTAGTGCAG	8410 fluorescence intensity (a.u.)
TATTTCGTGCTTCCCTGCCGCATCGCTCGCGCGCCAAAATCGGAGTCACCTAGTGCAG	8270 fluorescence intensity (a.u.)
TACTAGTTATTAAAGTGTCTTTCAGCCGTGACTTTTTTTACGGAGTCACCTAGTGCAG	9110 fluorescence intensity (a.u.)
TCCTCTATGGCGCCGCTTACGTCCCGCCGCCCCGCTCCTGCGGAGTCACCTAGTGCAG	9630 fluorescence intensity (a.u.)
CGATCGGAGGAGGAGGCGGCGGGGAGGGAGGAGGAGGATGCGGAGTCACCTAGTGCAG	10800 fluorescence intensity (a.u.)
CCGCGCCGCCACGCGCTCGCATCGCATCCACCAGCGCCCACGGAGTCACCTAGTGCAG	8140 fluorescence intensity (a.u.)
TTATGTTTTATAAACCTTACTCTCTTCGTTTCAGATTATACGGAGTCACCTAGTGCAG	8150 fluorescence intensity (a.u.)
TTTCTCTCTCTCTCTCTCAGCCTCTCTCTCCCTCTCTCTTCGGAGTCACCTAGTGCAG	8540 fluorescence intensity (a.u.)
TTCCGCCCGTCCCAATCCAGCCACCCGCTCGCCCGTCCGTCGGAGTCACCTAGTGCAG	11700 fluorescence intensity (a.u.)
GTTAATATTACCTCGTTTTGCATTAAAACACTTAATTTTTCGGAGTCACCTAGTGCAG	9510 fluorescence intensity (a.u.)
TCGATCTGATCAGCCCGGCAAGCTTGTCCGTCCTCCATCACGGAGTCACCTAGTGCAG	8360 fluorescence intensity (a.u.)
TGTGTGTGAGTGTATGTAGGGGTGGAAATGGTGTTTATGTCGGAGTCACCTAGTGCAG	8970 fluorescence intensity (a.u.)
GTTGAATCGTTATCCTTTCTACCGACGAAGTGACGTGAGTCGGAGTCACCTAGTGCAG	8350 fluorescence intensity (a.u.)
TTCCAGCCGCGCGTCCATGAGTTGATTTTTCGGGCTAAAACGGAGTCACCTAGTGCAG	8210 fluorescence intensity (a.u.)
TGAACCTTCATACGTGACTATGTCTAGCCGCAAATTCATACGGAGTCACCTAGTGCAG	8110 fluorescence intensity (a.u.)
ATATCTGGTTTTGCGGTTTGAGGATGTTTTCGTATCCCGACGGAGTCACCTAGTGCAG	12000 fluorescence intensity (a.u.)
TTTAAAACTAGGACCTGAGTAAATATTTTTCTTGAGTTTTCGGAGTCACCTAGTGCAG	8040 fluorescence intensity (a.u.)
CACAGCGCCTCTGCTTCCGTTTCAGTCACTCCCCGATCCACGGAGTCACCTAGTGCAG	8740 fluorescence intensity (a.u.)
GACTCGAGAAGCCGTCGTCTTCCACCTCTAGTTTTTCTCTCGGAGTCACCTAGTGCAG	10500 fluorescence intensity (a.u.)

Reformatted comma-delimited: part of the list above.
Sequence,binding signal
CACCCTCGCGCCGTCCATACATCCACCGTCGTGTCGCCCACGGAGTCACCTAGTGCAG,13900 fluorescence intensity (a.u.)
ATATCTGGTTTTGCGGTTTGAGGATGTTTTCGTATCCCGACGGAGTCACCTAGTGCAG,12000 fluorescence intensity (a.u.)

A second format for some results above:
Sequence | binding signal
ACTGCTCTGCATCATCTTCACCAACATGTCGACAACCAGCCGGAGTCACCTAGTGCAG | 8840 fluorescence intensity (a.u.)
TAGTATTTACCAGCTCTTTTGGATATGACAATTGACCATTCGGAGTCACCTAGTGCAG | 8320 fluorescence intensity (a.u.)
